{"sequences": {"note": "Chains of the proteins cited; added tags and fusions are not shown.", "UniProt Q03164, whole entry, looked up": "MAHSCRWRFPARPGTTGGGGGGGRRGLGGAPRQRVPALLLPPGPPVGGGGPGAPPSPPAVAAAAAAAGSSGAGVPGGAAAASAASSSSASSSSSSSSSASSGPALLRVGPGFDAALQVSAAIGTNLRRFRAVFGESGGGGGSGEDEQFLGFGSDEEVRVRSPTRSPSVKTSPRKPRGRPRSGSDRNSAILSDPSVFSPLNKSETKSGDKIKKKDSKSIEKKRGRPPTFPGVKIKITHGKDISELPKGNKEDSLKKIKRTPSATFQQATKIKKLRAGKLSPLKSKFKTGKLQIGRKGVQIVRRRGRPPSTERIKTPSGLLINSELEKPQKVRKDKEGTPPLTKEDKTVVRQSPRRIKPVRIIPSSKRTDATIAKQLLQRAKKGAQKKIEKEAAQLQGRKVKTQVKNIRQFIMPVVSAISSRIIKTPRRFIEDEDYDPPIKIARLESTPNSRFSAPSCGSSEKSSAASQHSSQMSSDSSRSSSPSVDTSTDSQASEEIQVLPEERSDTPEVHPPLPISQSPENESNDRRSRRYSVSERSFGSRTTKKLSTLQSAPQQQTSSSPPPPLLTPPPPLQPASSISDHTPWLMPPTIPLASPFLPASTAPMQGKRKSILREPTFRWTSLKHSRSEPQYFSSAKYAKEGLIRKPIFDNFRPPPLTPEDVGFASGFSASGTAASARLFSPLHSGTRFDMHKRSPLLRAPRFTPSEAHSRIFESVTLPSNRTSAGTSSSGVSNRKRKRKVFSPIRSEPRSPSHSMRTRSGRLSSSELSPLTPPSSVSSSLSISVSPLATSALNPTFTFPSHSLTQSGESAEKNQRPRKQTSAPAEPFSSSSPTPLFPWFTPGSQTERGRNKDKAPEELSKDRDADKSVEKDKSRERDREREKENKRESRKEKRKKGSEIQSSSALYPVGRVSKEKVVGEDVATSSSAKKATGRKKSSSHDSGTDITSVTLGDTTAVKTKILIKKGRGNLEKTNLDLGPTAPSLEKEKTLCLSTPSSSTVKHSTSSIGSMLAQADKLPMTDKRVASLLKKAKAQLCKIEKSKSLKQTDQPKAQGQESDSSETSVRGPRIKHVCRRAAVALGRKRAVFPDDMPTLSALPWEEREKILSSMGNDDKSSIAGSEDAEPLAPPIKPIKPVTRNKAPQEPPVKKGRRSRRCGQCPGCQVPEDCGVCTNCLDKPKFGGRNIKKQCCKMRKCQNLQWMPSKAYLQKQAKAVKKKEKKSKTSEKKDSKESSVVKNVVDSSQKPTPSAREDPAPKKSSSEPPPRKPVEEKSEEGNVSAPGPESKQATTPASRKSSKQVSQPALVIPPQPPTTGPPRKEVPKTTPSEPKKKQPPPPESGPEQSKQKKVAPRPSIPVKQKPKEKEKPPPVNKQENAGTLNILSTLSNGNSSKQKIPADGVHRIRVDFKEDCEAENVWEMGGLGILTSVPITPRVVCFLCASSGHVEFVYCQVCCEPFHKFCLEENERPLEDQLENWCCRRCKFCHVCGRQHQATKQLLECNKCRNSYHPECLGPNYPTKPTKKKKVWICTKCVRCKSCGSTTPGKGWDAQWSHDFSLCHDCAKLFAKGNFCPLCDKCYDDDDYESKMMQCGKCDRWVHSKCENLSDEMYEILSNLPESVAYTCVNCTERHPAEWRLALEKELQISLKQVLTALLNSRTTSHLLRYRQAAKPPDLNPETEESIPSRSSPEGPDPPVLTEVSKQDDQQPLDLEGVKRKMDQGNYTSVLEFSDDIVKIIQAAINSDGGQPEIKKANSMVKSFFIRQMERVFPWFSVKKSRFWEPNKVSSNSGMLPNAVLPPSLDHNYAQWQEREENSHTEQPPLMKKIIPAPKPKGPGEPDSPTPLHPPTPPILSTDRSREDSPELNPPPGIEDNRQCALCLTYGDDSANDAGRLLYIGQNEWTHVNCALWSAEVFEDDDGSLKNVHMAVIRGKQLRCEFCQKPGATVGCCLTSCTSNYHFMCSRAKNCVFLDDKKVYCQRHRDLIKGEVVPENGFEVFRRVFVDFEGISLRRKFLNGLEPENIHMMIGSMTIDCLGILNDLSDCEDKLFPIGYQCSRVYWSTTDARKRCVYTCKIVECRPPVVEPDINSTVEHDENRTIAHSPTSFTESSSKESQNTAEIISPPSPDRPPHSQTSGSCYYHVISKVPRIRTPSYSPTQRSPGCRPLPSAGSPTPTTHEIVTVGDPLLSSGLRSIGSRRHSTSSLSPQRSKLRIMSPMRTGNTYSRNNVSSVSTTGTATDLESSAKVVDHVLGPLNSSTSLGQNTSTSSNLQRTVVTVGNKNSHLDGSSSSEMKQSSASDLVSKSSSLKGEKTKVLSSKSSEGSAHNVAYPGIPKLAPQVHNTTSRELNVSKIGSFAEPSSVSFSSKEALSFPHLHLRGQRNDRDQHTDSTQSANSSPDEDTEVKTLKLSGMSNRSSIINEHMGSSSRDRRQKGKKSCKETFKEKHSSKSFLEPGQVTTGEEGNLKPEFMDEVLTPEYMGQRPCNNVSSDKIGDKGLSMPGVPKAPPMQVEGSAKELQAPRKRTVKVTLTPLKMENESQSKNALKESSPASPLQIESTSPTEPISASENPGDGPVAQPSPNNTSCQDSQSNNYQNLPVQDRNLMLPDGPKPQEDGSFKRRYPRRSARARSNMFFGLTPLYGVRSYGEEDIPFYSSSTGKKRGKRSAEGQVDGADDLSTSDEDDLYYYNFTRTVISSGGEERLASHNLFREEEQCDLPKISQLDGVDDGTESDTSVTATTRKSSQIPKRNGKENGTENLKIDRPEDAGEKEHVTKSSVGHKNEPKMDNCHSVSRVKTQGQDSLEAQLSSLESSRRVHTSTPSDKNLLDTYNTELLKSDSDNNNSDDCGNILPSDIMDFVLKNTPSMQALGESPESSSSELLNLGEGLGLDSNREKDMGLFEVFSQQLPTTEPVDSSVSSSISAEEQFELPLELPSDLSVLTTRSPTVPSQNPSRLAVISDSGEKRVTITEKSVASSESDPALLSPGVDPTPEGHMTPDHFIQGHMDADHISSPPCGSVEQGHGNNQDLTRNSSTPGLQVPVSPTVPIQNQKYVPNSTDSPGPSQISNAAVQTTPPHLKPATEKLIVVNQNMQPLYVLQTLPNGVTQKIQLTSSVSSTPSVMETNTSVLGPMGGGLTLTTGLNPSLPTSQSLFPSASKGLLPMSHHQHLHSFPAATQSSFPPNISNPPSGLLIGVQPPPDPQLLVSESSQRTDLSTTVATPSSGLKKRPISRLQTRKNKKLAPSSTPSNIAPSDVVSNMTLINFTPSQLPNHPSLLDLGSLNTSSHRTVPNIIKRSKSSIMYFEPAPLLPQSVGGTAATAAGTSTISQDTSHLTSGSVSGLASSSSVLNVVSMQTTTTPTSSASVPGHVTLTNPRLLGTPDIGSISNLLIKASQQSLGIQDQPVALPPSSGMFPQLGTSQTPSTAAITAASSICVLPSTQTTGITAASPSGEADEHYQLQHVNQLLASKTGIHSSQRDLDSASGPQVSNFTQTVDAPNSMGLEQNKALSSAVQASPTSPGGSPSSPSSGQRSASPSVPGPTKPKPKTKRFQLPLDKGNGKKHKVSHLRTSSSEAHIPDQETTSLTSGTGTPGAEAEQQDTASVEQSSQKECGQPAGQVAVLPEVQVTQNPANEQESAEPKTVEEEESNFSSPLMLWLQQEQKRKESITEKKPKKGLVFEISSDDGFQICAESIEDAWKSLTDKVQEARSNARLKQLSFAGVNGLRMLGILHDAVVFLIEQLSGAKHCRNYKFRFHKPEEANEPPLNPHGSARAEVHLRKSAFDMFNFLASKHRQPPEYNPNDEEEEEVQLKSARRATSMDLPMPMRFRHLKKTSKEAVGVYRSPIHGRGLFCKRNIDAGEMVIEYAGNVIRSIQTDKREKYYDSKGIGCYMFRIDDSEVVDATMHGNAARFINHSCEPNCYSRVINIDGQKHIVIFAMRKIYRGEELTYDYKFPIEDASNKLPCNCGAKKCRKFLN"}, "source": "PubChem BioAssay AID2662", "about": "(National Center for Advancing Translational Sciences (NCATS), 2010)", "note": "Screen size: about 290,000 compounds; about 110 (0.038%) were called active. This list was built around the results that the source calls inconclusive (neither active nor inactive); the mix of calls is not that of the screen. The call rests on the fitted dose curve; in most records, active means well fitted inhibition curve with a large enough effect in the polarisation, with a control signal flat (not every such curve was filed as active); inconclusive means small, poorly fitted or top-dose-only effect, or effect the other way, or a change in a side signal; inactive means no such curve, though single readings can be large or run the other way; the % refers to the polarisation. Potencies beside an inconclusive call are fits to weak or partial responses and may not hold up. A note “side channel” means that the fit belongs to a control or component signal, not to the main read-out. Potency means the concentration at half of the fitted maximal effect."}
{"molecular_target": "Histone-lysine N-methyltransferase 2A (Homo sapiens) (UniProt Q03164)", "assay": "qHTS Fluorescence Polarization Assay for Inhibitors of MLL CXXC domain - DNA interaction", "conditions": "MLL-CXXC / FITC-HOXA9 DNA fluorescence polarization; series mostly up to 115 µM", "in_short": "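Steps: dispense CXXC domain solution (7 uM) → pin compounds or unlabeled HOX-A9 DNA control → 5 min ambient → add FLSN-HOX-A9 solution (50 nM) → spin → 30 min ambient → fluorescence polarization. Tris pH 7.5/NaCl/DTT/BSA buffer.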"}
{"smiles": "CC(C)(C)c1cc[n+](-c2[nH]c(=O)sc2/C=N/NC([S-])=Nc2ccccc2)cc1", "Potency": "inconclusive: 35.5 µM [fluorescent, side channel, partial curve]"}
{"smiles": "O=C(NCCN1CCOCC1)c1ccccc1N1C(=O)[C@@H]2Cc3c([nH]c4ccccc34)C(c3ccc(F)cc3)N2C1=O", "note": "(some centres not stated)", "Potency": "inconclusive: 8.91 µM [fluorescent, side channel, single point]"}
{"smiles": "COc1cccc(OC)c1OCC(O)CN1CCN(c2ccccc2F)CC1", "note": "(configuration not stated)", "Potency": "inconclusive: 10 µM [fluorescent, side channel, single point]"}
{"smiles": "CCC1=Nc2ccccc2-c2nnc(SC)nc2O1", "Potency": "inactive"}
{"smiles": "COc1cc(S(=O)(=O)Nc2ccc(C)cc2)ccc1N=Cc1c(C)c(C#N)c(=O)n(C)c1O", "Potency": "inconclusive: 28.2 µM [fluorescent, side channel, partial curve]"}
{"smiles": "Cc1ccc(NC(=O)CNC(=O)c2ccccc2F)cc1Cl", "Potency": "inconclusive: 1.26 µM [fluorescent, side channel, partial curve, poor fit]"}
{"smiles": "COc1ccccc1NC(=O)c1cc(S(=O)(=O)NCc2ccccc2)ccc1F", "Potency": "inconclusive: 44.7 µM [fluorescent, side channel, partial curve]"}
{"smiles": "COCCCN1C(=O)/C(=C/c2ccc(CNS(=O)(=O)c3ccccc3)o2)C(C(=O)OC)=C1C", "Potency": "inconclusive: 39.8 µM [fluorescent, side channel, partial curve]"}
{"smiles": "CCC1(C)Cc2c(sc3nc(SC)[nH]c(=S)c23)CO1", "note": "(configuration not stated)", "Potency": "inconclusive: 35.5 µM [fluorescent, side channel, partial curve]"}
{"smiles": "Cc1nc2nc(CSc3ccc(Cl)cc3)cc(=O)n2[nH]1", "Potency": "inconclusive: 35.5 µM [fluorescent, side channel, single point]"}
{"smiles": "C1=C(c2ccc(-c3ccccc3)cc2)Nc2ncnn2C1c1ccco1", "note": "(configuration not stated)", "Potency": "inconclusive: 28.2 µM [fluorescent, side channel, partial curve]"}
{"smiles": "Nc1cc2nc3ccccc3oc-2cc1=O", "Potency": "inconclusive: 31.6 µM [quencher, side channel, partial curve]"}
{"smiles": "CCOC(=O)c1cc(-c2ccc(N)cc2)sc1N", "Potency": "inactive"}
{"smiles": "c1ccc(COc2ccc(-c3sc(Nc4ccccc4)n[n+]3-c3ccccc3)cc2)cc1", "Potency": "inconclusive: 35.5 µM [quencher, side channel, partial curve]"}
{"smiles": "O=[N+]([O-])c1ccccc1NCc1c(O)ccc2ccccc12", "Potency": "inconclusive: 28.2 µM [fluorescent, side channel, partial curve]"}
{"smiles": "O=C(N/N=C/c1ccoc1)c1ccc(Br)cc1", "Potency": "inconclusive: 14.1 µM [fluorescent, side channel, single point]"}
{"smiles": "CCOC(=O)c1ccccc1-n1c(C)cc(C2N=C(N)Nc3nc4ccccc4n32)c1C", "note": "(configuration not stated)", "Potency": "inconclusive: 3.55 µM [quencher, side channel, partial curve]"}
{"smiles": "Cc1ccc(S(=O)(=O)NNC(=O)CCCCC(=O)NNS(=O)(=O)c2ccc(C)cc2)cc1", "Potency": "inconclusive: 0.891 µM [quencher, side channel, full curve, poor fit]"}
{"smiles": "CCO[C@@H]1OC(C(N)=O)=C[C@H](c2ccccc2)[C@H]1CCCO", "Potency": "inconclusive: 35.5 µM [inhibitor, partial curve]"}
{"smiles": "CN1C(CC(=O)c2ccccc2)CCCC1CC(O)c1ccccc1", "note": "(configuration not stated)", "Potency": "inactive"}
{"smiles": "N#Cc1c(-c2ccco2)c2c([nH]c1=S)CCCC2", "Potency": "inconclusive: 20 µM [fluorescent, side channel, partial curve]"}
{"smiles": "N#C/C(=C/c1ccc(-c2ccc(S(N)(=O)=O)cc2)o1)c1nc2ccccc2s1", "Potency": "inconclusive: 28.2 µM [fluorescent, side channel, partial curve]"}
{"smiles": "COc1ccc(/C=C2/CCCC(C(=O)C(F)(F)F)=C2O)cc1OC", "Potency": "inconclusive: 63.1 µM [fluorescent, side channel, single point]"}
{"smiles": "CCN(C(=O)c1cc2c(=O)n3cccc(C)c3nc2n1CCCOC)C1CCCCC1", "Potency": "inconclusive: 35.5 µM [quencher, side channel, single point]"}
{"smiles": "CCn1cc(C(=O)NC(=S)Nc2ccccc2Br)cn1", "Potency": "inconclusive: 10 µM [fluorescent, side channel, single point]"}
{"smiles": "COC(=O)Cc1ccc(NC(=S)NCCCO)cc1", "Potency": "inconclusive: 7.94 µM [quencher, side channel, partial curve]"}
{"smiles": "CCn1c(NCCCO)nc2c(c1=O)C(C)(CC)Cc1ccccc1-2", "note": "(configuration not stated)", "Potency": "inactive"}
{"smiles": "Cc1cccc(-n2c(O)c(C=Nc3cc(O)ccc3C)c3ccccc3c2=O)n1", "Potency": "inconclusive: 1.78 µM [quencher, side channel, full curve]"}
{"smiles": "C=CCC1(Cl)C(=O)C(Cl)=C(N2CCN(C)CC2)C1(OC)OC", "note": "(configuration not stated)", "Potency": "inconclusive: 10 µM [inhibitor, full curve, poor fit]"}
{"smiles": "CCc1nnc(NC(=O)c2c(-c3ccccc3)noc2C)s1", "Potency": "inconclusive: 89.1 µM [quencher, side channel, single point]"}
{"smiles": "CCC(C)[C@H](NC(=O)OC(C)(C)C)C(=O)N/N=C/c1cccc2nccnc12", "note": "(some centres not stated)", "Potency": "inactive"}
{"smiles": "O=S(=O)(c1ccc(Br)cc1)N1CCN(c2ccc3nnc(-c4ccccc4)n3n2)CC1", "Potency": "inactive"}
{"smiles": "COc1ccc(-c2cc(C(F)(F)F)nc(-n3ccnc3)n2)cc1", "Potency": "inconclusive: 1.41 µM [fluorescent, side channel, full curve, poor fit]"}
{"smiles": "Cc1ccc(N=C2NC(=O)/C(=C/c3cccs3)S2)cc1C", "Potency": "inconclusive: 31.6 µM [fluorescent, side channel, partial curve]"}
{"smiles": "O=S(=O)(c1ccc(Cl)cc1)c1nc(-c2ccco2)oc1N1CCCCC1", "Potency": "inconclusive: 35.5 µM [fluorescent, side channel, single point]"}
{"smiles": "O=C(Nc1ccc(S(=O)(=O)NCC2CCCO2)cc1)c1ccc(Cl)cc1[N+](=O)[O-]", "note": "(configuration not stated)", "Potency": "inconclusive: 44.7 µM [fluorescent, side channel, single point]"}
{"smiles": "CC(NCC(O)COc1ccccc1)C1COc2ccccc2O1", "note": "(configuration not stated)", "Potency": "inconclusive: 14.1 µM [fluorescent, side channel, single point]"}
{"smiles": "Cc1ccc(C(=O)CCS(=O)(=O)c2ccc(Cl)cc2)cc1", "Potency": "inconclusive: 14.1 µM [fluorescent, side channel, single point]"}
{"smiles": "Cc1nn(C)cc1/C=N\\NC(=O)c1ccc(Cn2cc(Cl)cn2)cc1", "Potency": "inactive"}
{"smiles": "CC(=O)c1cccc(NC(=O)NNC(=O)c2ccc3ccccc3c2)c1", "Potency": "inconclusive: 10 µM [fluorescent, side channel, single point]"}
{"smiles": "CCN(c1ccccc1)S(=O)(=O)c1nnc(NC(=O)CC(C)C)s1", "Potency": "inconclusive: 3.16 µM [fluorescent, side channel, partial curve]"}
{"smiles": "COc1ccccc1C(=O)N1CCC(C(=O)c2ccc(F)cc2)CC1", "Potency": "inconclusive: 70.8 µM [inhibitor, single point]"}
{"smiles": "COc1ccccc1N=Nc1c(C)[nH][nH]c1=O", "Potency": "inconclusive: 7.08 µM [fluorescent, side channel, single point]"}
{"smiles": "OC(COc1ccccc1)CN1CCN(C(c2ccccc2)c2ccccc2)CC1", "note": "(configuration not stated)", "Potency": "inconclusive: 14.1 µM [quencher, side channel, full curve, poor fit]"}
{"smiles": "COc1ccccc1N1C(=O)c2cccc3c(N(C)CCO)ccc(c23)C1=O", "Potency": "inconclusive: 31.6 µM [fluorescent, side channel, partial curve]"}
{"smiles": "CCCCNC(=O)C(C#N)c1nc2ccccc2nc1N1CCCC1", "note": "(configuration not stated)", "Potency": "inconclusive: 35.5 µM [fluorescent, side channel, partial curve]"}
{"smiles": "NC(N)=NS(=O)(=O)c1ccc(N=C2C(=O)Nc3ccccc32)cc1", "Potency": "inconclusive: 10 µM [fluorescent, side channel, single point]"}
{"smiles": "O=C(Nc1cccc2ccccc12)c1ccc(Cn2cc(Cl)cn2)cc1", "Potency": "inconclusive: 1.12 µM [fluorescent, side channel, full curve, poor fit]"}
{"smiles": "CCC1(c2ccccc2)NC(=O)N(CC(=O)N(C)CC(=O)Nc2cccc(F)c2)C1=O", "note": "(configuration not stated)", "Potency": "inconclusive: 15.8 µM [quencher, side channel, single point]"}
{"smiles": "Cc1cccc(C(=O)c2ccccc2C(=O)O)c1O", "Potency": "inconclusive: 39.8 µM [fluorescent, side channel, single point]"}
{"smiles": "Cc1nn(-c2cccc(Cl)c2)c2nc(-c3ccco3)cc(C(=O)O)c12", "Potency": "inconclusive: 63.1 µM [inhibitor, single point]"}
{"smiles": "CC(=O)C(C)Sc1nnc(-c2ccccc2F)n1C1CC1", "note": "(configuration not stated)", "Potency": "inactive"}
{"smiles": "COC(=O)c1cccc(NC(=O)Cc2nc(-c3ccccc3)sc2-c2ccc(C)cc2)c1", "Potency": "inactive"}
{"smiles": "Cc1ccccc1NC(=O)N1CCN(c2ncccn2)CC1", "Potency": "inconclusive: 70.8 µM [inhibitor, single point]"}
{"smiles": "CCn1c(/C=C/c2ccc([N+](=O)[O-])o2)nc2ccccc2c1=O", "Potency": "inconclusive: 35.5 µM [fluorescent, side channel, single point]"}
{"smiles": "O=C(NC1CC1)c1cc2cc3ccccc3nc2s1", "Potency": "inconclusive: 8.91 µM [quencher, side channel, single point]"}
